Test: general procedure: peptide synthesis; HATU/DIPEA
Settings: conjugation step

## Disorazole Z Mono Hemi Succinyl Somatostatin (18); peptide H-D-Phe-Cys-Tyr-D-Trp-Lys(Fmoc)-Val-Cys-Thr-NH2×HCl (disulfide bridged)
  conjugation yield: 33%
